Test system: Flp-In T-REx 293 cells
Assay: Intracellular localization of HA-tagged full-length Bax and K189/K190 mutants, immunoblot of cytosolic and mitochondrial lysates
Type: cell-based
Settings: for Localization of full-length Bax among cytosolic and mitochondrial lysates: HA-tagged Bax, Flp-In T-Rex 293 cells, immunoblot; for Cellular Localization: full-length Bax, residues 189-192 mutated, Flp-In T-REx 293 cells

## Bax-DD: full-length Bax, K189/K190 substituted with aspartic acid
  Localization of full-length Bax among cytosolic and mitochondrial lysates: cytosolic retention
  Cellular Localization: Cytosol

## Bax-EE: full-length Bax, K189/K190 substituted with glutamic acid
  Localization of full-length Bax among cytosolic and mitochondrial lysates: cytosolic retention
  Cellular Localization: Cytosol

## Bax-EK: full-length Bax, mutation of K189
  Localization of full-length Bax among cytosolic and mitochondrial lysates: cytosolic
  Cellular Localization: Cytosol

## Bax-KK: full-length, wild-type HA-tagged Bax
  Localization of full-length Bax among cytosolic and mitochondrial lysates: distributed among cytosolic and mitochondrial lysates
  Cellular Localization: Cyto > Mito

## Bax-LL: full-length Bax, K189/K190 substituted with leucine
  Localization of full-length Bax among cytosolic and mitochondrial lysates: mitochondrial association
  Cellular Localization: Mito

## Bax-QQ: full-length Bax, K189/K190 substituted with glutamine
  Cellular Localization: Cyto = Mito

## Bax-RR: full-length Bax, K189/K190 substituted with arginine
  Localization of full-length Bax among cytosolic and mitochondrial lysates: mitochondrial localization
  Cellular Localization: Mito

## KEMK: full-length Bax, residues 189-192 printed KEMK, SEQ ID NO 59
  Cellular Localization: Cytosol

## KLMG: full-length Bax, residues 189-192 KLMG, SEQ ID NO 56
  Cellular Localization: Mito

## LKMG: full-length Bax, residues 189-192 LKMG, SEQ ID NO 55
  Cellular Localization: Mito

B1: Bax-KMGK: full-length Bax, rearrangement of C-terminal residues to KMGK (protein, UniProt Q07812 1-192, looked up, variant K190M M191G G192K)
Apoptosis regulator BAX: MDGSGEQPRGGGPTSSEQIMKTGALLLQGFIQDRAGRMGGEAPELALDPVPQDASTKKLSECLKRIGDELDSNMELQRMIAAVDTDSPREVFFRVAADMFSDGNFNWGRVVALFYFASKLVLKALCTKVPELIRTIMGWTLDFLRERLLGWIQDQGGWDGLLSYFGTPTWQTVTIFVAGVLTASLTIWKMGK
  Cellular Localization: Cyto = Mito

Source: patent publication US11179436B2, “Methods and compositions comprising a C-terminal Bax peptide” (University of Central Florida Research Foundation, Inc., priority 2011, dated 2021)
